Experimental data: US20250051825A1, “Ex Vivo Production of Compounds of Interest” (Nederlandse Organisatie voor …, priority 2021, published 2025)

Experiment: Atorvastatin normothermic machine perfusion of ex vivo porcine liver, perfusate and bile analysed by LC/MS
Format: in vitro ADME, Sus scrofa domesticus
Conditions: pig, bile, other: slow bolus to the portal vein; slow bolus of 0.104 mg over 10 minutes to portal vein; mean±SD (n=4)
Method: Porcine Livers. Livers were obtained from a local slaughterhouse (Sus scrofa domesticus, approximately at the age of 6 months, with body weight between 100 and 120 kg). Pigs were sacrificed by a standardized procedure of electrocution followed by exsanguination. Thereafter, 3 L of blood was collected in a container supplemented with 25,000 IU of heparin. All abdominal organs were dissected outside the animal and collected. Within 20 minutes after termination, the vena porta was cannulated and directly flushed by gravity with 3 L of NaCl 0.9% (Baxter BV, Utrecht, The Netherlands) supplemented with 5000 IU of heparin followed by 2 L of ice-cold histidine-tryptophan-ketoglutarate solution (Plegistore, Warszawa, Poland). In the meantime, the arteria hepatica was dissected, cannulated, and subsequently flushed with histidine-tryptophan-ketoglutarate. At the laboratory, side branches were ligated, and the common bile duct was cannulated, whereas the ductus cysticus, derived from the gall bladder, was ligated. Normothermic Machine Perfusion. […] Drug concentrations in perfusate, bile and liver biopsies were determined by LC-MS/MS analysis as described below. The concentration of atorvastatin and its metabolites in perfusate and bile was quantified using LC/MS. […] Samples were then mixed with 50 μL of water, vortexed and injected in to LC/MS for quantification. […]

CC(C)c1c(C(=O)Nc2ccccc2)c(-c2ccccc2)c(-c2ccc(F)cc2)n1CC[C@@H](O)C[C@@H](O)CC(=O)O [atorvastatin, Atorvastatin, reference compound]
Tmax: 35 min
